# Results from one PubChem assay

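Selective DUX4 reporter inhibition in doxycycline-induced 293T-iDUX4 cells, scored as Gaussia percent activity minus Italica percent activity, after a 24-hour treatment. The test concentration is not given here. Percent difference between the Gaussia and Italica channels; more negative values mean more selective suppression of the DUX4 reporter, and higher values mean less activity.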

Values are in %. The controls that fix the scale are not given here. Common to all entries: measured here: selective DUX4 reporter inhibition. This is a side read-out of the assay, for part of the compounds, not drawn at random.

compound: CN1c2ccc(-c3cccc(F)c3)cc2[C@H]2[C@H](CCN2C(=O)c2ccc3c(c2)OCO3)[C@@H]1CO
Gaussia minus Italica difference (%): -8.162

compound: CCC(=O)N1CC2(C1)CN(Cc1cccc(Cl)c1)[C@@H](CO)c1[nH]c3cc(OC)ccc3c12
Gaussia minus Italica difference (%): -10.46

compound: CN(C)c1ccc2c(c1)[C@@H]1C[C@H](CC(=O)NCc3ccc(-c4ccccc4)cc3)O[C@@H](CO)[C@@H]1O2
Gaussia minus Italica difference (%): -5.286

compound: OC[C@@H]1[C@@H](c2ccccc2)C2(CN(Cc3ccccc3F)C2)N1Cc1ccccc1F
Gaussia minus Italica difference (%): -13.08

compound: CCC(=O)N1CCCCN2[C@H](CO)[C@H](c3ccc(/C=C/c4ccccc4)cc3)[C@@H]2C1
Gaussia minus Italica difference (%): 0.8005

compound: O=C(C1CC1)N1CCCCN2[C@H](C1)[C@H](c1ccc(C#CC3CCCC3)cc1)[C@@H]2CO
Gaussia minus Italica difference (%): -6.683

compound: O=S(=O)(N[C@@H]1CC[C@@H](CCn2cc(-c3cccnc3)nn2)O[C@@H]1CO)c1ccc(Cl)cc1
Gaussia minus Italica difference (%): -13.55

compound: O=C(C[C@@H]1CC[C@@H](NC(=O)Nc2ccc(C(F)(F)F)cc2)[C@H](CO)O1)NCc1cccc(F)c1
Gaussia minus Italica difference (%): -7.598

compound: CC(C)CC#Cc1ccc([C@@H]2[C@H](CO)N3C(=O)CN(C(=O)NC4CCCCC4)C[C@@H]23)cc1
Gaussia minus Italica difference (%): -22.48

compound: O=C(C[C@H]1CC[C@@H]2[C@H](COC[C@H](O)CN2CCc2ccccc2)O1)NCc1ccc(Oc2ccccc2)cc1
Gaussia minus Italica difference (%): -18.84

compound: O=C(C[C@@H]1CC[C@@H]2[C@H](COC[C@H](O)CN2S(=O)(=O)c2ccc(Oc3ccccc3)cc2)O1)NCCN1CCCCC1
Gaussia minus Italica difference (%): 20.19

compound: O=C(C[C@H]1CC[C@@H](NC(=O)c2ccc3c(c2)OCO3)[C@H](CO)O1)NCc1ccc(Oc2ccccc2)cc1
Gaussia minus Italica difference (%): -10.23

compound: COc1ccc(S(=O)(=O)N2C[C@H](O)COC[C@H]3O[C@H](CC(=O)NCc4ccc(Cl)c(Cl)c4)CC[C@@H]32)cc1
Gaussia minus Italica difference (%): 1.226

compound: O=C(Nc1ccccc1)N1CCCCN2[C@@H](CO)[C@H](c3ccc(C4=CCCCC4)cc3)[C@@H]2C1
Gaussia minus Italica difference (%): 9.525

compound: O=C(C[C@@H]1C[C@H]2c3cc(NC(=O)Nc4ccc(C(F)(F)F)cc4)ccc3O[C@H]2[C@H](CO)O1)NCC1CC1
Gaussia minus Italica difference (%): -11.99

compound: C[C@H]1CN([C@@H](C)CO)C(=O)Cc2cc(N(C)C)ccc2O[C@@H]1CN(C)Cc1ccc(-c2ccccc2)cc1
Gaussia minus Italica difference (%): 5.626

compound: O=C(C[C@H]1C[C@@H]2c3cc(NC(=O)c4cccnc4)ccc3O[C@@H]2[C@@H](CO)O1)NCc1cc(F)ccc1F
Gaussia minus Italica difference (%): -2.641

compound: OC[C@@H]1[C@@H](c2ccc(C#Cc3ccccc3)cc2)[C@H]2CN(CC3CCOCC3)CCCCN12
Gaussia minus Italica difference (%): -11.47

compound: CN1c2ccc(-c3cccc(C#N)c3)cc2[C@H]2[C@H](CCN2S(=O)(=O)c2cccc(F)c2)[C@@H]1CO
Gaussia minus Italica difference (%): 8.405

compound: C[C@H]1CN([C@@H](C)CO)C(=O)c2c(c3ccccc3n2C)-c2ccccc2CO[C@@H]1CN(C)Cc1ccc2c(c1)OCCN2C
Gaussia minus Italica difference (%): -6.873

compound: CCCNC(=O)N1CC2(C1)[C@@H](c1ccccc1)[C@@H](CO)N2CC1CCCC1
Gaussia minus Italica difference (%): -12.14

compound: C[C@@H]1CN([C@@H](C)CO)C(=O)c2c(c3ccccc3n2C)-c2ccccc2CO[C@@H]1CN(C)S(=O)(=O)c1cccc(F)c1
Gaussia minus Italica difference (%): -4.463

compound: COc1ccc2c3c(n(C)c2c1)[C@H](CO)NCC31CN(Cc2ccccc2F)C1
Gaussia minus Italica difference (%): -15.76

compound: N#C[C@@H]1[C@H](c2ccccc2-c2ccccc2F)[C@@H](CO)N1C(=O)Cc1ccccc1
Gaussia minus Italica difference (%): -2.314

compound: CO[C@@H]1CN(C)C(=O)c2cc(NC(=O)c3ccc4c(c3)OCO4)ccc2OC[C@H](C)N(CCC(F)(F)F)C[C@H]1C
Gaussia minus Italica difference (%): -14.6

compound: CN1c2ccc(-c3ccccc3F)cc2[C@H]2[C@H](CCN2S(=O)(=O)c2ccccc2F)[C@H]1CO
Gaussia minus Italica difference (%): -10.31

compound: N#Cc1ccc(-c2ccc(C3[C@@H]4CN(C(=O)c5ccccn5)C[C@H]3N4)cc2)cc1 (stereo partly drawn)
Gaussia minus Italica difference (%): -10.69

compound: COc1cc(CN2CC3(CCN(C)CC3)c3c([nH]c4cc(OC)ccc34)[C@@H]2CO)cc(OC)c1
Gaussia minus Italica difference (%): -8.917

From PubChem BioAssay record AID1224904 (Broad Institute, 2016).